No constants are given. Whether binding was seen depends on the method and setting. Binding seen in cells or lysates may run through a third protein. Some results given as binding are weak or reduced against the parent protein; the word gives no strength. Tags and fused reporters may be left off the sequences shown.
How the values were obtained:
[1] = molecular target: T1, Myc-tagged Mgl-1 (full length) (mouse) (UniProt Q80Y17); experiment: co-IP; Myc-tagged Mgl-1 (or its five deletion fragments) and Flag-tagged USP11 co-transfected into HEK293T cells; lysed after 48 hrs; immunoprecipitation with anti-Myc or anti-Flag antibody, immunoblotting
T1 sequence: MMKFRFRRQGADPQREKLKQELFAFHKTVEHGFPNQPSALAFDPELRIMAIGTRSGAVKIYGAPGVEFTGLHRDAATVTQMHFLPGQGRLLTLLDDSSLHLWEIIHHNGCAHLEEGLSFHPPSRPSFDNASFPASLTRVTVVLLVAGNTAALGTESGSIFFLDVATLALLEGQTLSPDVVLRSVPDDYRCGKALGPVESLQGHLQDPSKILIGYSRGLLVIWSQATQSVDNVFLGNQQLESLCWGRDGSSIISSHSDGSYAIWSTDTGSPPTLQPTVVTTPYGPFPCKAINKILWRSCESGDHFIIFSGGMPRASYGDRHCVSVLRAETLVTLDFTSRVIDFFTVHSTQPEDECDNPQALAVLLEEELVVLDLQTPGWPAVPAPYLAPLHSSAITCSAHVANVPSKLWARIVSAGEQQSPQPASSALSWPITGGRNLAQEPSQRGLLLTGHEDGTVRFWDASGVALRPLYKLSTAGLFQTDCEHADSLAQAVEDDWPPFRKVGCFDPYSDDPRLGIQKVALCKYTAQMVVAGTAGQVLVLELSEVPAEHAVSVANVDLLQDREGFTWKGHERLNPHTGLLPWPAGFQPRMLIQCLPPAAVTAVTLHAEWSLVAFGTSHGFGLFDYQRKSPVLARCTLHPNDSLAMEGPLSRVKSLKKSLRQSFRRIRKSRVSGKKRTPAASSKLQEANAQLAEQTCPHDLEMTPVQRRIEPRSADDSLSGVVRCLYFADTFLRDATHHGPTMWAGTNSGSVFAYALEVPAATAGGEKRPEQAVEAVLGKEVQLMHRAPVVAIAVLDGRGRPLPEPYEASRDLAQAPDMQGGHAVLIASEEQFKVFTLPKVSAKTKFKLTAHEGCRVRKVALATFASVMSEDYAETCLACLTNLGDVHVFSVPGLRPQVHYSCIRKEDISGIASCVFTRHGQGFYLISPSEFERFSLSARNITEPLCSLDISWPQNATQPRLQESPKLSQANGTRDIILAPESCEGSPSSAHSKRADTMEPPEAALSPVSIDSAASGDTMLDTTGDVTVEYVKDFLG

Chains of the proteins cited; added tags and fusions are not shown.
UniProt Q99K46: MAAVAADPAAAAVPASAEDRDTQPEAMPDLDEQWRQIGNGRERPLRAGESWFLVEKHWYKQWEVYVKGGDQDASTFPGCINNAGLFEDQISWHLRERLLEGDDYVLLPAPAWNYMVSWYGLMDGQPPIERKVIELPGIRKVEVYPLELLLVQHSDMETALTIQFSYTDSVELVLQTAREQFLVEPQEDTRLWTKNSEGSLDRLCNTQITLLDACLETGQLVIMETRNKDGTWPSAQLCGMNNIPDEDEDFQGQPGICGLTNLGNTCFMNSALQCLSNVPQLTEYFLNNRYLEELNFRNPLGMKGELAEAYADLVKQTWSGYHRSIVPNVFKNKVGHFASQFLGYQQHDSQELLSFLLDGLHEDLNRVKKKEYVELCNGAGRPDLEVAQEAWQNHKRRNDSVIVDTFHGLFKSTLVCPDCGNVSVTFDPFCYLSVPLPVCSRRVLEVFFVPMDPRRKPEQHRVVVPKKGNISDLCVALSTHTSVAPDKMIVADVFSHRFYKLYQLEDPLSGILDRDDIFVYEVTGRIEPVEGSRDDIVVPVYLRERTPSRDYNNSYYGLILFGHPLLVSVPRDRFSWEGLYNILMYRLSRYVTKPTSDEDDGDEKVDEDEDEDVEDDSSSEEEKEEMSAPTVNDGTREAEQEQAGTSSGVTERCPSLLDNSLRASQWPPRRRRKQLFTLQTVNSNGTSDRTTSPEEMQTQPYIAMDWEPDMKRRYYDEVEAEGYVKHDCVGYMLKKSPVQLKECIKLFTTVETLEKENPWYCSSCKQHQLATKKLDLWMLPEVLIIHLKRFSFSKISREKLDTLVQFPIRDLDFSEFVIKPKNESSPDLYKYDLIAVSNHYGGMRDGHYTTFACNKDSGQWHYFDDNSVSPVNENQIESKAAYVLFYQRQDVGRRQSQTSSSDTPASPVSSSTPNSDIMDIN

[2] = molecular target: T2, Myc-tagged Mgl-1 fragment 1-565 (mouse) (UniProt Q80Y17); experiment: as above
T2 sequence: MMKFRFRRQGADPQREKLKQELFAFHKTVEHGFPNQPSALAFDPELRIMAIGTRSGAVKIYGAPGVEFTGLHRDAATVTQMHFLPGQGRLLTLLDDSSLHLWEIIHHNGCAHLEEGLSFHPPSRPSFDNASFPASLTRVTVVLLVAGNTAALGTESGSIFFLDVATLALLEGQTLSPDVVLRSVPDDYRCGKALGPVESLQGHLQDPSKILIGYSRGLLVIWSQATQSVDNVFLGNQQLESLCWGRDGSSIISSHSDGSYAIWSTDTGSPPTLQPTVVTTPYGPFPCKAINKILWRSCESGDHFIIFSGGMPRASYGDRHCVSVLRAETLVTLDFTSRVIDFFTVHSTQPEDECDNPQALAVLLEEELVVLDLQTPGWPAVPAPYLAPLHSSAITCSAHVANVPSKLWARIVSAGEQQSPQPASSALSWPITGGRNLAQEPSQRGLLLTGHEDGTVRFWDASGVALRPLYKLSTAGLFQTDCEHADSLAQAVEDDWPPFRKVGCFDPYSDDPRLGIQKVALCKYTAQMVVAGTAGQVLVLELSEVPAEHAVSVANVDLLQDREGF

[3] = molecular target: T3, Myc-tagged Mgl-1 fragment 1-680 (mouse) (UniProt Q80Y17); experiment: as above
T3 sequence: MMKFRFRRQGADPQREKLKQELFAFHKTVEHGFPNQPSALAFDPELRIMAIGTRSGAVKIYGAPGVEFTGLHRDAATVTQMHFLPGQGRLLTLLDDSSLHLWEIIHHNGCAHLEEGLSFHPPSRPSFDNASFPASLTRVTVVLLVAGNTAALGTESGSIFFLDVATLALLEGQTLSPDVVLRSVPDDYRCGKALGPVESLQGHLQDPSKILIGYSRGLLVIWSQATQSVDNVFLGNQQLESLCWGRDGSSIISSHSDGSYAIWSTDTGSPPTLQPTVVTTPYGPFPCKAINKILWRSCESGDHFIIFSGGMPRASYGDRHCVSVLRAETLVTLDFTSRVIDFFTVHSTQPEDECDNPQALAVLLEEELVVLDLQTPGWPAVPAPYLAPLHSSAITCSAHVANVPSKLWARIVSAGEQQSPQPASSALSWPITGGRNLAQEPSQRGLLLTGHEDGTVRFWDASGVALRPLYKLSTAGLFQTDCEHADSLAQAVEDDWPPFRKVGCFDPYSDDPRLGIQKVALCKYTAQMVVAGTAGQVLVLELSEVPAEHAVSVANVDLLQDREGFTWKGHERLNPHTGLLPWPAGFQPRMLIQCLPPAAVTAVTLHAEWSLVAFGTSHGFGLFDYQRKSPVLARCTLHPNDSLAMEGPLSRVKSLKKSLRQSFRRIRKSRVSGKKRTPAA

[4] = molecular target: T4, Myc-tagged Mgl-1 fragment 1-934 (mouse) (UniProt Q80Y17); experiment: as above
T4 sequence: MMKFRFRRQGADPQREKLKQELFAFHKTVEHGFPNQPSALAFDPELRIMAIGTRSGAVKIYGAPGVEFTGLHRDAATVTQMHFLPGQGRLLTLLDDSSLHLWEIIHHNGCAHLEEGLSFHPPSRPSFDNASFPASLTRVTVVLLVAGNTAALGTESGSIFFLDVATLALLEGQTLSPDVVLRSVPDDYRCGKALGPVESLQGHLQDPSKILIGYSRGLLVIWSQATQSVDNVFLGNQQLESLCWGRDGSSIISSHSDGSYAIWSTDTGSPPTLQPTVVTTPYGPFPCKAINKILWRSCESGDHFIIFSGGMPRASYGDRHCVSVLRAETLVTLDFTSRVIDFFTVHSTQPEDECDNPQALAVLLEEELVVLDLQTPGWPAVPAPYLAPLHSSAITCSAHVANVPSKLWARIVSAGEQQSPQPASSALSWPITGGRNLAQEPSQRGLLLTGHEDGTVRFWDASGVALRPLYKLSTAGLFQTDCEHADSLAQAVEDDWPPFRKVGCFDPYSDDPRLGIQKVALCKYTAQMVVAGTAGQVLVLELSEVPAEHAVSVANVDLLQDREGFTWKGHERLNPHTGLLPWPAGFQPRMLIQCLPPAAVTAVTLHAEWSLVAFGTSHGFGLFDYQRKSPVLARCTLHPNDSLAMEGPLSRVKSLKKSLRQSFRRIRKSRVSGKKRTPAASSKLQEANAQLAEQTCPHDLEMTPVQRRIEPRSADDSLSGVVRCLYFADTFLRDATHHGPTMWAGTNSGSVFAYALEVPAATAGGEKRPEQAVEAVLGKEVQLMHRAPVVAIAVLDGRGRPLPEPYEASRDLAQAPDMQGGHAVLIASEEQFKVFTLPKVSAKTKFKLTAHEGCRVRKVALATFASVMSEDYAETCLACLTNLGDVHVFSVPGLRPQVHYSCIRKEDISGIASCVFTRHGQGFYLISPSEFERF

[5] = molecular target: T5, Myc-tagged Mgl-1 fragment 608-1034 (mouse) (UniProt Q80Y17); experiment: as above
T5 sequence: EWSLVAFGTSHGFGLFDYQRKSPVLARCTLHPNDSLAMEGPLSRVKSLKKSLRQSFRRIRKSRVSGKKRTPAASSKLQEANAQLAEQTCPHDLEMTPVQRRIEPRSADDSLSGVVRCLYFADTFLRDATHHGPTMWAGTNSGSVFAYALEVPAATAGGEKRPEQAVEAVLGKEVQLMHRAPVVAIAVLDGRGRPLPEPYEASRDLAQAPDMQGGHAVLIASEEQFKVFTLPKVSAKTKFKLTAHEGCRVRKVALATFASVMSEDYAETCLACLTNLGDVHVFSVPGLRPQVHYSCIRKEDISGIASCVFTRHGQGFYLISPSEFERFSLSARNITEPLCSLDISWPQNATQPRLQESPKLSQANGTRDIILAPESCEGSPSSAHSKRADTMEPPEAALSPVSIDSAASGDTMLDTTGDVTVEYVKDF

[6] = molecular target: T6, GST-Mgl-1 fusion protein (mouse) (UniProt Q80Y17); experiment: pull-down; GST-Mgl-1 or GST immobilised on Glutathione-Sepharose beads, incubated with extract of HEK293T cells transfected with Flag-USP11; buffer A (20 mM Tris-HCl, 1 mM EDTA, 1 mM dithiothreitol, 150 mM NaCl, 1% Triton X-100); blot with anti-USP11; only the target purified
T6 sequence: T1 sequence

Measured: binding

Flag-tagged USP11 (ubiquitin-specific protease 11) (from UniProt Q99K46 1-921) (enzyme)
binds: all assays above

— PMC4924727
